# Laboratory results: PubChem BioAssay AID2685 (National Center for Advancing Translational Sciences (NCATS), 2010)
# The list shows a part of the results. Further columns of the screen follow, without active or inactive calls. The list favours compounds with an active or inconclusive main result. The note in brackets gives the kind of curve behind each potency; many fits are weak.
# Experiment: qHTS Assay for Lipid Storage Modulators in Drosophila S3 Cells;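 for cell number change: cells counted by Cell Tracker Red CMTPX staining in the red channel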
# Conditions: BODIPY lipid droplet fluorescence, 18-24 h; for cell number change: measured here: cell count max response, cells fed with added oleic acid
# In short: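 Drosophila S3 cells got compounds at several concentrations plus oleic acid (400 uM solution). Laser-scanning cytometry with 488 nm excitation read lipid droplets at 500-530 nm and cells at 575-640 nm. Percent activity was relative to 20 uM Triacsin C.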
# [1] = measured here: lipid fluorescence (Fed channel) AC50, cells fed with added oleic acid
# [2] = measured here: cell number channel AC50, cells fed with added oleic acid
SMILES,cell number change [%],AC50 [1],AC50 [2]
CCOc1cc(S(=O)(=O)n2c(C)nc3ccccc32)ccc1F,-16.6,"5.17 µM [falling, full curve]",–
Nc1nc2nc(SCC(=O)N3CCCc4ccccc43)[nH]c2c(=O)[nH]1,9.43,–,–
O=C(NC1=NCCS1)C1Cc2ccccc2CN1C(=O)c1ccccc1 (stereo unspecified),-32.1,"0.259 µM [rising, full curve, poor fit]","0.103 µM [falling, full curve, poor fit]"
CCc1nnc2c(N(C)S(=O)(=O)c3ccc(C)cc3)nc3ccccc3n12,-7.25,–,–
O=C(O)c1cc(NS(=O)(=O)c2ccc(NCc3ccccc3)c([N+](=O)[O-])c2)cc(C(=O)O)c1,12.6,"18.4 µM [falling, single point]",–
Cc1ccccc1CN(C)C(=O)[C@H](Cc1ccccc1)NC(=O)c1ccco1,-13.5,"0.517 µM [falling, full curve]",–
Cc1ccc(-c2nnn(CC(=O)N3CCC(C)CC3)n2)o1,–,"6.51 µM [falling, single point]","6.51 µM [falling, single point]"
CSc1nc2c(c(=O)[nH]1)C(c1ccc(C(F)(F)F)cc1)CC(=O)N2 (stereo unspecified),-8.8,"6.51 µM [falling, single point]","0.731 µM [falling, single point]"
O=C(Oc1ccc(Br)cc1)C1CCN(C2=NS(=O)(=O)c3ccccc32)CC1,-7.9,–,–
Nc1c(Cl)cc(C2=NCCn3nc4cc([N+](=O)[O-])ccc4c32)cc1Cl,–,"18.4 µM [falling, partial curve]",–
Cc1cccc(OCC(=O)Nc2ccc3c(c2)nc(CCN2CCN(c4ccccn4)CC2)n3C)c1,14.9,"1.46 µM [rising, full curve]","2.06 µM [rising, partial curve]"
O=C(COc1ccc(F)cc1F)NNC(=O)Nc1cccc([N+](=O)[O-])c1,-19.3,"29.1 µM [falling, single point]",–
COCc1ccc(C(=O)N2CCCC(N3CCN(c4ccc(F)cc4)CC3)C2)o1 (stereo unspecified),22,"16.4 µM [rising, single point]",–
Cc1ccc(S(=O)(=O)N(CC(=O)O)Cc2ccccc2)cc1,16.5,"6.51 µM [falling, single point]",–
Cc1ccc(NC(=O)CN(CCc2ccccc2)S(C)(=O)=O)cc1,8.77,–,–
Cn1c(=O)c2c(SCC(=O)c3ccccc3)nc(C3CC3)nc2n(C)c1=O,-1.29,"0.461 µM [rising, full curve, poor fit]",–
COc1ccccc1N1CCN(C(=O)c2cc(-c3ccccc3O)on2)CC1,16.2,"25.9 µM [rising, single point]",–
Cc1ccc(NC(=O)C2CCN(S(=O)(=O)c3ccc4c(c3)NC(=O)CO4)CC2)cc1C,–,"6.51 µM [rising, single point]",–
CCOC(=O)c1c(NC(=S)N2CCN(C)CC2)sc(C)c1-c1ccccc1,-35.6,"2.91 µM [rising, partial curve]",–

SMILES,cell number change [%],AC50 [1],AC50 [2]
CC1CCN(C(=O)CCNS(=O)(=O)c2ccc(Br)cc2)CC1,-8.58,"2.06 µM [falling, partial curve, poor fit]",–
Cn1c(O)c(N=NC(=O)Cn2ccc(C(F)(F)F)n2)c2ccccc21,10.2,"0.651 µM [rising, partial curve]",–
O=[N+]([O-])c1cc(Cl)ccc1Sc1cccc2cccnc12,-26.8,–,"2.31 µM [rising, single point]"
O=C(c1ccncc1)N(Cc1ccco1)Cc1cc2ccccc2[nH]c1=O,-12.8,–,–
Nc1nc(-c2ccccc2)nc2sc3c(c12)CCCC3,–,"2.91 µM [rising, single point]",–
Cc1ccc(NC(=O)CN(C)CC(=O)Nc2ccc(N3CCOCC3)cc2)c([N+](=O)[O-])c1,42,–,"13 µM [rising, partial curve, poor fit]"
COc1ccc(Cn2c(=O)n(Cc3ccco3)c(=N)c3c4c(sc32)COC(C)(C)C4)cc1,-28.8,"0.092 µM [rising, single point]",–
COc1cc2c(cc1OC)C(C(=O)Nc1ccc3c(c1)OCCO3)C(c1cccnc1)N(C)C2=O (stereo unspecified),-20.1,–,"2.91 µM [rising, single point]"
CCOc1ccc(C(=O)N(Cc2ccc(OC)cc2)Cc2cc3cc(OC)ccc3[nH]c2=O)cc1,-23.7,"1.84 µM [rising, partial curve]","1.3 µM [rising, partial curve]"
Cc1ccsc1C1C(C#N)=C(N)Oc2n[nH]c(C)c21 (stereo unspecified),-40.1,"29.1 µM [falling, single point]","0.326 µM [falling, full curve]"
CS(=O)(=O)N(CC(=O)NCc1ccco1)c1ccc(Cl)c(C(F)(F)F)c1,-30.5,–,"25.9 µM [falling, partial curve, poor fit]"
O=C(NC(N1CCOCC1)C(Cl)(Cl)Cl)c1ccc(F)cc1 (stereo unspecified),124,"2.06 µM [falling, partial curve]","6.51 µM [falling, single point]"
Cc1nc(-c2ccccc2O)n(S(=O)(=O)N(C)C)n1,39.4,"25.9 µM [rising, single point]","29.1 µM [rising, single point]"
O=C(Nc1nncs1)c1cc(S(=O)(=O)N2CCOCC2)ccc1Cl,–,"6.31 µM [rising, single point]",–
COc1ccccc1NC(=O)CSc1nc2sc(C)c(C)c2c(=O)n1Cc1ccco1,-16.9,–,–
CC(C)CCN1C(=O)c2ccc(C(=O)NCc3ccco3)cc2C1=O,-2.76,–,–
COc1ccc2[nH]c(=O)c(CN(C(=O)c3ccncc3)C(C)(C)C)cc2c1,8.21,"14.6 µM [rising, partial curve]",–
CCn1c(SCC(N)=O)nc2c(c1=O)C1(CCCC1)Cc1ccccc1-2,3.83,–,–
COc1ccc(C(=O)N=c2sc3c(C)ccc(OC)c3n2C)cc1OC,21.6,"0.651 µM [rising, partial curve]",–

# Among those listed so far, these have an NH in an aromatic ring.
SMILES,cell number change [%],AC50 [1],AC50 [2]
Nc1nc2nc(SCC(=O)N3CCCc4ccccc43)[nH]c2c(=O)[nH]1,9.43,–,–
CSc1nc2c(c(=O)[nH]1)C(c1ccc(C(F)(F)F)cc1)CC(=O)N2 (stereo unspecified),-8.8,"6.51 µM [falling, single point]","0.731 µM [falling, single point]"
O=C(c1ccncc1)N(Cc1ccco1)Cc1cc2ccccc2[nH]c1=O,-12.8,–,–
CCOc1ccc(C(=O)N(Cc2ccc(OC)cc2)Cc2cc3cc(OC)ccc3[nH]c2=O)cc1,-23.7,"1.84 µM [rising, partial curve]","1.3 µM [rising, partial curve]"
Cc1ccsc1C1C(C#N)=C(N)Oc2n[nH]c(C)c21 (stereo unspecified),-40.1,"29.1 µM [falling, single point]","0.326 µM [falling, full curve]"
COc1ccc2[nH]c(=O)c(CN(C(=O)c3ccncc3)C(C)(C)C)cc2c1,8.21,"14.6 µM [rising, partial curve]",–
